PubChem BioAssay AID2685 (National Center for Advancing Translational Sciences (NCATS), 2010)
The list shows a part of the results. These are further read-outs of the screen, such as a control signal, another cell line or another target. No call is given for them. Most of these compounds were active or inconclusive in the main read-out, so they are no random draw. The note in brackets gives the kind of curve behind each potency; many fits are weak.

Assay: qHTS Assay for Lipid Storage Modulators in Drosophila S3 Cells;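 for cell number change: cells counted by Cell Tracker Red CMTPX staining in the red channel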
Details: BODIPY lipid droplet fluorescence, 18-24 h; for cell number change: measured here: cell count max response, cells fed with added oleic acid
In short: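 Drosophila S3 cells got compounds at several concentrations plus oleic acid (400 uM solution). Laser-scanning cytometry with 488 nm excitation read lipid droplets at 500-530 nm and cells at 575-640 nm. Percent activity was relative to 20 uM Triacsin C.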

[1] = measured here: cell number channel AC50, cells fed with added oleic acid
[2] = measured here: lipid fluorescence (Fed channel) AC50, cells fed with added oleic acid

For `O=C1CN(C(=O)COc2ccc([N+](=O)[O-])cc2Cl)c2ccccc2N1`, the cell number change was -51.1%, the AC50 [1] was 23.1 µM [falling, partial curve] and the AC50 [2] was 14.6 µM [falling, partial curve].

With `Cc1nc(SCCC(C)C)c([N+](=O)[O-])[nH]1` the cell number change was 2.47% and the AC50 [2] was 0.731 µM [falling, full curve].

In the case of `Oc1ccc(CN2CCc3ccccc3C2)c2cccnc12`, the cell number change is reported as -22.3%.

Molecule `COc1cccc(CNC(=O)C(C)n2ccc3cc(S(=O)(=O)N4CCCCCC4)ccc32)c1` (stereo not given) has a cell number change of -3.82%.

With `Cc1ccc(C)c(S(=O)(=O)NCCOC(=O)Nc2sc(=S)n(C)c2C)c1` the cell number change was -12.1%.

In the case of `COc1ccc(C)cc1NC(=O)C1CCN(C(=O)C2CC(=O)N(c3ccc(C)cc3)C2)CC1` (stereo not given), the cell number change is reported as 25.6% and the AC50 [2] is reported as 29.1 µM [rising, partial curve, poor fit].

With `CCc1ccc(N2CCN(S(=O)(=O)CC34CCC(CC3=O)C4(C)C)CC2)cc1` (stereo not given) the cell number change was -4.56%, the AC50 [1] was 0.82 µM [rising, single point] and the AC50 [2] was 0.58 µM [rising, single point].

For `Cc1ccc(S(=O)(=O)N(CC(O)CN2C(=O)NC(C)(C)C2=O)c2cccc([N+](=O)[O-])c2)cc1` (stereo not given), the cell number change was 12.4%.

Work on `O=C(CCC(=O)N(CC(=O)NC1CCCC1)Cc1ccc2c(c1)OCO2)Nc1ccccn1` yielded a cell number change of -3.59%.

For `C=CCNc1sc(C(=O)c2ccc(Br)s2)c(N)c1C#N`, the cell number change was 84.6%, the AC50 [1] was 1.3 µM [rising, full curve] and the AC50 [2] was 1.03 µM [rising, full curve].

In the case of `COc1ccc(C(=O)Nc2ccccc2-c2ccccc2)cc1Cl`, the cell number change is reported as 4.95% and the AC50 [2] is reported as 0.092 µM [rising, partial curve, poor fit].

For `CC(NC(=O)C(=O)NN=C1CCCC1)c1ccccc1` (stereo not given), the cell number change was 7.35% and the AC50 [2] was 0.116 µM [falling, full curve, poor fit].

In the case of `COc1ccc(C(=O)NNC(=O)CN(C)S(=O)(=O)c2ccc(Cl)cc2)c(OC)c1OC`, the AC50 [2] is reported as 20.6 µM [falling, single point].

Work on `Cc1cccc(C(=O)NCC(=O)OCC(=O)N2CC3(C)CC2CC(C)(C)C3)c1` (stereo not given) yielded a cell number change of -0.157%.

`COc1cccc(/C=C/c2n[nH]c(=O)c(C#N)c2C)c1` showed a cell number change of -4.5%.

In the case of `Cc1ccc(NC(=O)CS(=O)CC(=O)Nc2ccc3c(c2)OCO3)cc1Cl` (stereo not given), the cell number change is reported as 31.1% and the AC50 [1] is reported as 1.84 µM [rising, full curve, poor fit].

With `COc1ccccc1C1C2=C(N=c3s/c(=C/c4cccc(OCC(=O)O)c4)c(=O)n31)c1ccccc1CC2` (stereo not given) the cell number change was 45.5% and the AC50 [1] was 5.8 µM [rising, partial curve].

In the case of `CCOC(=O)c1cc(=O)n(-c2ccc(Cl)cc2C)[nH]1`, the cell number change is reported as 10.5% and the AC50 [2] is reported as 8.2 µM [rising, partial curve].

With `Cn1cc(S(=O)(=O)Nc2ccc(OC(F)(F)F)cc2)c(=O)n(C)c1=O` the cell number change was -17.5%, the AC50 [1] was 6.51 µM [falling, single point] and the AC50 [2] was 6.51 µM [falling, single point].

With `O=C1CS/C(=C\[N+](=O)[O-])N1c1ccc(OC(F)(F)F)cc1` the cell number change was -20.5%.

Work on `COc1ccc(C(=O)N(C(C)C)C(C)C)c(OC)c1` yielded a cell number change of 21.7%.

For `O=S(=O)(/N=C(/Nc1cccc2ccccc12)c1ccccc1)c1ccc(F)cc1`, the cell number change was -32%, the AC50 [1] was 2.31 µM [falling, full curve, poor fit] and the AC50 [2] was 5.8 µM [falling, full curve].

`O=C(NNc1c2ccccc2nc2ccccc12)C(O)c1ccccc1` (stereo not given) showed a cell number change of -22.4%.

In the case of `COc1ccc(-c2ccc3c(c2)S(=O)(=O)c2cccc(C(=O)NC[C@@H]4CCCO4)c2C3=O)cc1OC`, the cell number change is reported as -88.7%, the AC50 [1] is reported as 20.6 µM [falling, partial curve] and the AC50 [2] is reported as 29.1 µM [falling, single point].

In the case of `O=C(c1cn(CC(=O)N2CCCC2)c2ccccc12)C1CCCCC1`, the cell number change is reported as 8.25%.

With `O=C(CCC(=O)c1ccc(Oc2ccccc2)cc1)Nc1cccc(Cl)c1Cl` the cell number change was -0.145% and the AC50 [2] was 0.92 µM [rising, full curve, poor fit].

In the case of `CC(C)(C)n1nnnc1C(c1ccccc1F)N1CCN(C2CCCC2)CC1` (stereo not given), the cell number change is reported as 8.26% and the AC50 [2] is reported as 18.4 µM [rising, single point].

In the case of `CCOc1cc(-c2ccc(N)c(OCC)c2)ccc1N`, the AC50 [1] is reported as 0.58 µM [rising, single point].

`O=c1[nH]c2ccccc2cc1CN(c1ccccc1)S(=O)(=O)c1ccccc1` gave a cell number change of -0.235%.

In the case of `CCc1nnc(NC(=O)c2ccc(F)c(S(=O)(=O)N3CCCCC3)c2)s1`, the cell number change is reported as -21.8%.

In the case of `OC[C@H]1O[C@H](OCc2ccccc2)[C@H](O[C@@H]2OC[C@@H](O)[C@H](O)[C@H]2O)[C@@H](O)[C@@H]1O`, the cell number change is reported as -35.1%, the AC50 [1] is reported as 29.1 µM [falling, single point] and the AC50 [2] is reported as 29.1 µM [falling, single point].

With `COCCn1c(SCC(=O)N2CC(=O)Nc3ccccc32)nc2ccccc21` the AC50 [1] was 0.326 µM [falling, partial curve, poor fit] and the AC50 [2] was 1.64 µM [falling, single point].

With `COc1cccc(-n2c(Cc3cc(=O)[nH]c(=O)[nH]3)nnc2SCc2cccc(C(F)(F)F)c2)c1` the cell number change was 33.4%, the AC50 [1] was 0.58 µM [rising, full curve] and the AC50 [2] was 0.291 µM [rising, full curve, poor fit].

For `COc1ccc(F)cc1S(=O)(=O)N1CCN(Cc2ccc3c(c2)OCO3)CC1`, the cell number change was -11.6%.

In the case of `C=CCNC(=O)c1ccc(N(Cc2ccc(Cl)cc2)S(C)(=O)=O)cc1`, the cell number change is reported as -3.65% and the AC50 [2] is reported as 29.1 µM [falling, single point].

In the case of `Cc1cccc(NC(=S)NCc2ccc3c(c2)OCO3)c1C`, the cell number change is reported as 76.2%, the AC50 [1] is reported as 18.4 µM [rising, single point] and the AC50 [2] is reported as 6.51 µM [rising, single point].

In the case of `Cn1c(=NC(=O)CCS(=O)(=O)c2ccccc2)sc2cc(F)ccc21`, the cell number change is reported as 4.98% and the AC50 [2] is reported as 6.51 µM [rising, single point].

For `COc1cccc(C(=O)NNC2OC(CO)C(O)C2O)c1` (stereo not given), the AC50 [2] was 1.46 µM [rising, partial curve, poor fit].

With `Cc1ccc(C(=O)NC2CC3CCC(C2)N3C)cc1` (stereo not given) the cell number change was -2.62% and the AC50 [1] was 0.13 µM [falling, full curve, poor fit].
